No constants are given. Whether binding was seen depends on the method and setting. Some entries that bind do so weakly or less than the wild type.
Columns and labels:
[1] = biological target: recombinant human mesothelin (MSLN) (human) (UniProt Q13421); assay: SPR (Biacore), Fab culture supernatant diluted 1/10 over human MSLN fixed on a CM5 chip, Example 3-7
[2] = biological target: recombinant human mesothelin (MSLN) (human) (UniProt Q13421); assay: ELISA, Fab supernatant on MSLN-coated plate

Protein sequences, listed by entry. Tags and fused reporters are not part of them. Lines headed by an entry give the natural chain unless they say otherwise; changes in a name come on top.
UniProt Q13421: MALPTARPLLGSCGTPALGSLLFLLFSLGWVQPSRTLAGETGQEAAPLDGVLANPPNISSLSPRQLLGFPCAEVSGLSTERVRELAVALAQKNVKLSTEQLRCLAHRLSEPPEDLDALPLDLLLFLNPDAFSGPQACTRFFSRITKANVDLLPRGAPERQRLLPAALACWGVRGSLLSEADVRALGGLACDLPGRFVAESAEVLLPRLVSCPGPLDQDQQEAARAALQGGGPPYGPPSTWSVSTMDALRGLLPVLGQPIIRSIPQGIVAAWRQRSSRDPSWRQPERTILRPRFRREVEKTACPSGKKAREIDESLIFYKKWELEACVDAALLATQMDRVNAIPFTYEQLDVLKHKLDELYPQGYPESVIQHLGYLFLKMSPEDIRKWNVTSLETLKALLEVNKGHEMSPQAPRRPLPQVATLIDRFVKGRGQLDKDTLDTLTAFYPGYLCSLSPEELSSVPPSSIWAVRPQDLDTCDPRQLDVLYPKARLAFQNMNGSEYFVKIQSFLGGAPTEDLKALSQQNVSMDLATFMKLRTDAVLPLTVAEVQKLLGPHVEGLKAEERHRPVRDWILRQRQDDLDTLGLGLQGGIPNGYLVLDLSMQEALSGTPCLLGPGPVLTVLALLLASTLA

binding [1]: binds
binding [2]: binds
B1: clone 2-73 (MS502 heavy chain variable region mutation antibody) (antibody, V domains shown)
VH: EVQLLESGGGLVQPGGSLRLSCAASGFTFSNYAMSWVRQAPGKGLEWVSGIPPNSDSKYYADSVRGRFTVSRDNSKNTLYLQMNSLRAEDTAVYYCAKNMLSFDYWGQGTLVTVSS
VL: QSVLTQPPSASGTPGQRVTISCTGSSSNIGSNAVSWYQQLPGTAPKLLIYYNSKRPSGVPDRFSGSKSGTSASLAISGLRSEDEADYYCGSWDSSLNGYVFGGGTKVTVLG
